The values below come from PMC5740110.

Chains of the proteins cited; added tags and fusions are not shown.
UniProt P15873: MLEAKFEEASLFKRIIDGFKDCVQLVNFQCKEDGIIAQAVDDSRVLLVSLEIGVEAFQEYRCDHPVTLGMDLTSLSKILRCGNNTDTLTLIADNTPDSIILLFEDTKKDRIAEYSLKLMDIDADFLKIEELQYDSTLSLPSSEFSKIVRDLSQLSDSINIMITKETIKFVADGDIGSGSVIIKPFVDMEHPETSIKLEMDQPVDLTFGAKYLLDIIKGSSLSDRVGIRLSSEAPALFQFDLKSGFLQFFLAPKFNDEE
UniProt P61077: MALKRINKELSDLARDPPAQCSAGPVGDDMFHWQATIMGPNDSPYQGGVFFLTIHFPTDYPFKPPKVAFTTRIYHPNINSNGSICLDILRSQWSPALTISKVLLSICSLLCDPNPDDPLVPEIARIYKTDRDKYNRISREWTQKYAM

These are yes or no findings as the source states them, for the method shown.

The target of the assay is yeast PCNA (proliferating cell nuclear antigen) (yeast) (UniProt P15873). Put plainly: cross-linking; small molecule cross-linker BS3 2 mM, 20 μM of each protein, 20 mM Hepes pH 7.5, 150 mM NaCl, room temperature, 1 h; SDS-PAGE and western blot; both purified. In general terms: Immunoblotting shows a protein as a band on a membrane.

Take “ubiquitin-conjugating enzyme UBE2D3 (from UniProt P61077 1-147)”: the binding result is “no binding (tested: 20 μM UBE2D3 and 20 μM yPCNA)”.
